Laboratory results from article PMC11363328.
The exact form of at least one protein or probe is not confirmed. The comparison behind a weaker result is the experiment's own reference, which may not be listed here. For some of these results: At least one verdict was read from the data and is not stated in words by the source.

By UniProt entry, the sequences of proteins in these tests, tags left out.
UniProt P60842, whole entry: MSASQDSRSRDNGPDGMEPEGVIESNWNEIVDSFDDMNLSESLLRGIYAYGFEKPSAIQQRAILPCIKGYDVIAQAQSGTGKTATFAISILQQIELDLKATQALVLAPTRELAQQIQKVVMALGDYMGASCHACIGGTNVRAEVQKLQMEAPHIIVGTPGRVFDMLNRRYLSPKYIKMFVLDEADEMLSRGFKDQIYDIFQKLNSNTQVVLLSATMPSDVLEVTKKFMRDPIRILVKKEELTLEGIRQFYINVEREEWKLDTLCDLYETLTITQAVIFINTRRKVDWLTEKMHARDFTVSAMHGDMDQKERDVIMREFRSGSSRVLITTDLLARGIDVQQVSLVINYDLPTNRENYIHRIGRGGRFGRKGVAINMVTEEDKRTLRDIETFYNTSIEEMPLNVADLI

Experiments:
[1] = tested on: DDX3X; assay: fluorescence polarization; conditions: 1 mM MgCl2, 14.4% glycerol, 0.1% DMSO, 2 mM DTT, 10 nM probe, room temperature, 10 min, recombinant protein
[2] = target: eIF4A1 (UniProt P60842); assay: fluorescence polarization; conditions: 1 mM ADP+Pi with 10 uM (-)-5, (-)-7 or (-)-20, ATP needed to enhance anisotropy change; FP: 14.4 mM HEPES-KOH pH 8, 108 mM NaCl, 1 mM MgCl2, 14.4% glycerol, 0.1% DMSO, 2 mM DTT, 1 mM ATP, 10 nM probe, room temperature, 10 min; recombinant protein
[3] = tested on: DDX3X; assay: fluorescence polarization, protein titration; conditions: FP: 14.4 mM HEPES-KOH pH 8, 108 mM NaCl, 1 mM MgCl2, 14.4% glycerol, 0.1% DMSO, 2 mM DTT, 10 nM probe, room temperature, 10 min, recombinant protein

AGAGAGAGAGAGAGAG [FAM-r(AG)8]
binding result ([1]; 10 uM (-)-5, 1 mM ATP, 1.5 uM protein, less than (-)-7 and (-)-20, FP: 14.4 mM HEPES-KOH pH 8, 108 mM NaCl): binds more weakly
binding result ([1]; 10 uM (-)-7, 1 mM ATP, 1.5 uM protein, FP: 14.4 mM HEPES-KOH pH 8, 108 mM NaCl): binds
binding result ([1]; 10 uM (-)-20, 1 mM ATP, 1.5 uM protein, FP: 14.4 mM HEPES-KOH pH 8, 108 mM NaCl): binds
binding result ([1]; 1 mM ADP+Pi with 10 uM (-)-5, (-)-7 or (-)-20, ATP needed to enhance anisotropy change, FP: 14.4 mM HEPES-KOH pH 8, 108 mM NaCl, 1 mM ATP): binds more weakly
binding result [2]: binds more weakly
binding result ([3]; 50 uM (-)-5, 1 mM ATP, significantly less efficacious): binds more weakly
binding result ([3]; 50 uM (-)-7, 1 mM ATP, strongest stimulation): binds
